No constants are given. Whether binding was seen depends on the method and setting. Some binding calls cover weakened binding; strength is not graded here.
Biological target: transferrin receptor (TfR) (Homo sapiens (Human)) (UniProt P02786)
Test: cryo-EM, 3D electron density map at about 3.4 Å

- binding: binds
Binder: GHHERLKSDEWSVTSG [helical region binding moiety #01]

— US20250066449A1
